Counter-ions that a name gives are not always drawn. Some of the results follow. Many values rest on one well or one pass, so single values are uncertain. Square brackets hold non-standard residues; d marks the D form. Peptide text beside a SMILES is read from it. Nle = CCCC[C@H](N)C(=O)O
tested on: SK-N-BE(2); test: inhibition of N-Myc immunofluorescence signal per cell relative to control (fraction); higher = stronger N-Myc protein reduction; conditions: 1 µM; 9 h

Q: `Cc1cc(C)c(CNC(=O)c2cc(-c3ccc(CN4CCOCC4)cc3)cc3c2cnn3C2CCCC2)c(=O)[nH]1` was tested. Which “inhibition of N-Myc immunofluorescence signal per cell” value (“inhibition … per cell” for short) did it give?
A: The value was -0.0544.

Q: `CCOC(=O)[C@]1(c2ccccc2)N=C(c2ccc(OC)cc2)N(Cc2ccccc2)[C@@H]1c1ccc(NCc2ccccc2)cc1` was tested. Which “inhibition … per cell” value did it give?
A: The value was -0.173.

Q: `Cc1cc(OCc2nnc(SC3CCCC3)n2-c2cccnc2)ccc1-c1ccc(S(C)(=O)=O)cc1` was tested. Which “inhibition … per cell” value did it give?
A: Its value is 0.0725.

Q: Which “inhibition … per cell” value does the source give for `O=C(NC[C@H](O)CN1CCc2ccccc2C1)c1ccnc(NC2CCC2)c1` here?
A: The value was 0.0246.

Q: Which “inhibition … per cell” value does the source give for `Nc1c(C(=O)c2ccccc2)sc2[nH]c(=O)c(C(=O)O)cc12` here?
A: Its value is 0.252.

Q: How did the “inhibition … per cell” value turn out when `CN(CCCNC(=O)c1ccc2nc3c(c(Cl)c2c1)CCCC3)Cc1ccccc1` was run?
A: Its value is 0.23.

Q: With `Nc1cccc2c1C(=O)N(C1CCC(=O)NC1=O)C2=O` (stereo not given) [Pomalidomide] as the compound, how does the “inhibition … per cell” value read?
A: Its value is 0.03.

Q: `O=C(CCCCCCC(=O)Nc1ccccc1)NO` [Vorinostat] was tested. Which “inhibition … per cell” value did it give?
A: The value was -0.258.

Q: How did the “inhibition … per cell” value turn out when `N#Cc1nc2c(nc1C#N)-c1ccccc1/C2=N\OCc1ccccc1` was run?
A: The value was 0.177.

Q: How did the “inhibition … per cell” value turn out when `CCC[C@H](NC(=O)/C(C#N)=C/c1cccc(Br)n1)c1ccccc1` [Degrasyn] was run?
A: Its value is 0.146.

Q: With `CCCCN(Cc1ccc(C(=O)NO)cc1)C(=O)Nc1ccccc1` [Nexturastat A] as the compound, how does the “inhibition … per cell” value read?
A: Its value is 0.0987.

Q: `COc1ccc(C[C@H](NC(=O)[C@H](C)NC(=O)CN2CCOCC2)C(=O)N[C@@H](Cc2ccccc2)C(=O)C2(C)CO2)cc1` (stereo in doubt) was tested. Which “inhibition … per cell” value did it give?
A: Its value is -0.487.

Q: For `Cc1cc(C(=O)CN2CCCCC2)c(C)n1-c1ccc(Cl)cc1`, which “inhibition … per cell” value is on record?
A: The value was 0.0258.

Q: With `CCOC(=O)c1ccc(-c2ncc(C(=O)OCC)s2)nc1` [Diethyl-pythiDC] as the compound, how does the “inhibition … per cell” value read?
A: Its value is -0.0252.

Q: `O=C(NC1CC1)C(=O)C(Cc1ccccc1)NC(=O)[C@H]1CCC(=O)N1Cc1ccccc1` (stereo not given in full) [Alicapistat] was tested. Which “inhibition … per cell” value did it give?
A: Its value is 0.0934.

Q: For `CCCc1cc(C)[nH]c(=O)c1CNC(=O)c1cc(-c2ccc(N3CCN(C(C)C)CC3)nc2)cc2c1cnn2C(C)C`, which “inhibition … per cell” value is on record?
A: The value was 0.0846.

Q: `O=C(O)CNC(=O)c1ncc(-c2cccc(Cl)c2)cc1O` [Vadadustat] was tested. Which “inhibition … per cell” value did it give?
A: Its value is 0.0245.

Q: With `Nc1cccc2nnn(C3CCC(=O)NC3=O)c(=O)c12` (stereo not given) as the compound, how does the “inhibition … per cell” value read?
A: The value was 0.186.

Q: Which “inhibition … per cell” value does the source give for `Cc1cnc(-c2ccccc2C(C)C)nc1NCc1ccc(-n2ccnn2)cc1` here?
A: The value was 0.259.

Q: With `c1ccc([C@H]2CN3CCSC3=N2)cc1` [Levamisole (hydrochloride)] as the compound, how does the “inhibition … per cell” value read?
A: Its value is 0.15.

Q: For `Nc1ccccc1NC(=O)c1ccc(CNC(=O)OCc2cccnc2)cc1` [Entinostat], which “inhibition … per cell” value is on record?
A: Its value is 0.035.

Q: `CCCCc1nc2cc(/C=C/C(=O)NO)ccc2n1CCN(CC)CC` [Pracinostat] was tested. Which “inhibition … per cell” value did it give?
A: The value was -0.126.

Q: For `Cc1nc2cccc(N)c2c(=O)n1C1CCC(=O)NC1=O` (stereo not given) [Avadomide], which “inhibition … per cell” value is on record?
A: Its value is -0.0885.

Q: How did the “inhibition … per cell” value turn out when `O=C1NN(c2ccc(F)c(Cl)c2)C(=O)/C1=C\c1ccc([N+](=O)[O-])o1` was run?
A: Its value is 0.324.

Q: Which “inhibition … per cell” value does the source give for `Cc1[nH]c2ccccc2c1CCNCc1ccc(/C=C/C(=O)NO)cc1` [Panobinostat] here?
A: Its value is 0.146.

Q: Which “inhibition … per cell” value does the source give for `CCOc1cccc(OCCN(C)C)c1C(=O)Nc1ccc(Cl)c(C(F)(F)F)c1` here?
A: Its value is -0.0313.

Q: How did the “inhibition … per cell” value turn out when `CCOC(=O)CCNc1cc(N2CCc3ccccc3CC2)nc(-c2ccccn2)n1` was run?
A: The value was 0.193.

Q: `COc1ccc(C2=N[C@H](c3ccc(Cl)cc3)[C@H](c3ccc(Cl)cc3)N2C(=O)N2CCNC(=O)C2)c(OC(C)C)c1` [Nutlin-3b] was tested. Which “inhibition … per cell” value did it give?
A: Its value is 0.123.

Q: How did the “inhibition … per cell” value turn out when `O=C1CCc2c(ccc3ccccc23)O1` [Splitomicin] was run?
A: The value was 0.0504.

Q: How did the “inhibition … per cell” value turn out when `Cc1ccc(S(=O)(=O)Nc2cc(C(F)(F)F)ccc2C(=O)Nc2nc(-c3ccccc3)cs2)cc1` was run?
A: The value was 0.0848.

Q: `CCOC(=O)NCCCC(=O)NCCc1ccccc1` [Santacruzamate A] was tested. Which “inhibition … per cell” value did it give?
A: The value was 0.177.

Q: For `N#Cc1c(N)[nH]c2cc(/C=C/c3cccc(F)c3)ccc12`, which “inhibition … per cell” value is on record?
A: The value was 0.109.

Q: For `CC(C)Oc1ccc(-c2c[nH]cc2CN(C)CCN)cc1`, which “inhibition … per cell” value is on record?
A: The value was -0.157.

Q: `CCCC[C@@H](C=O)NC(=O)[C@H](CC(C)C)NC(=O)[C@H](CC(C)C)NC(C)=O` (Ac-Leu-Leu-[Nle]-aldehyde) was tested. Which “inhibition … per cell” value did it give?
A: The value was 0.109.

Q: Which “inhibition … per cell” value does the source give for `CCCCN1CCC(N(Cc2ccccc2)C(=O)Nc2ccc(Cl)c(Cl)c2)CC1` here?
A: Its value is 0.11.
